Paper doi:10.1101/2025.02.06.636700

Molecular target: T1, IAA11 (INDOLE-3-ACETIC ACID INDUCIBLE 11), yeast two-hybrid fusion (Arabidopsis thaliana) (UniProt Q38829)
T1 sequence: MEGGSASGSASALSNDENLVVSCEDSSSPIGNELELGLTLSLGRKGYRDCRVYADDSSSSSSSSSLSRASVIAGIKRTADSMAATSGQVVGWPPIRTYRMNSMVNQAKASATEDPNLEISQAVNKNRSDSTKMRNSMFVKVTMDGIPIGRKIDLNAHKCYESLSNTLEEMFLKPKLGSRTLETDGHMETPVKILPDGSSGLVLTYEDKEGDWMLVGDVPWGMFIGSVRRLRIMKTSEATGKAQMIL
Test: two-hybrid

Substance | binding
HaRxL106 full length (HaRxL106 FL), yeast two-hybrid fusion (Hyaloperonospora arabidopsidis) | binds
HaRxL106 carboxy-terminal domain (HaRxL106-c58), yeast two-hybrid fusion (Hyaloperonospora arabidopsidis) (domain or fragment) | binds

These are yes or no findings as the source states them, for the method shown. A result given as binding can be weak or reduced; the word gives no strength. Where a sequence is shown, tags or fusion partners need not be part of it.
